Experimental data published in article doi:10.1101/713677.
Like-named read-outs stand apart in the source and are kept apart here. Results are given in words; binding and its absence hold for the method and conditions named. For part of these data: Binding seen in cells or lysates may run through a third protein. Some results given as binding are weak or reduced against the parent protein; the word gives no strength. Where a sequence is shown, tags or fusion partners need not be part of it.

B1: Bacillus subtilis DivIB (BACTH fusion) (protein, UniProt P16655 1-263)
chain: MNPGQDREKIVNIEERIPKIKEQRKQKANRRLISFIMLFFIMVLIIVYLQTPISKVSTISVTGNENVSKKEIIDLSDINSGDTEFWSLDKQKTEKKIQQNKLVKKAEISKSLPNKINIAIEEYKAIAYLEKDDVYYEVLENGSVLPNEVTPDDAGPILVNWTNAKKRSQMAKQLDALSNSLKQSISEIYYTPVKMDENRIKLYMNDGYVVTASIKTFADRMKTYPSIISQLSSNKKGIIHLEVATYFEEFGKNDKAAKKEDEN
B2: DivIB-FLAG (protein, UniProt P16655 1-263)
chain: B1 chain
B3: Bacillus subtilis FtsL (BACTH fusion) (protein, UniProt Q07867 1-117)
chain: MSNLAYQPEKQQRHAISPEKKVIVKKRASITLGEKVLLVLFAAAVLSVSLLIVSKAYAAYQTNIEVQKLEEQISSENKQIGDLEKSVADLSKPQRIMDIAKKNGLNLKDKKVKNIQE
B4: Bacillus subtilis DivIC (BACTH fusion) (protein, UniProt P37471 1-125)
chain: MNFSRERTITEIQNDYKEQVERQNQLKKRRRKGLYRRLTVFGALVFLTAIVLASSVWSQTSSLSAKEEKKEQLEKELKSLKTKQTDLKEEISKLKDEDYVTELARRDLFMSGDGEIIFNVEKKSK

How the values were obtained:
[1] = biological target: T1, Bacillus subtilis PBP2B (BACTH fusion) (Bacillus subtilis 168) (UniProt Q07868); assay: two-hybrid
T1 sequence: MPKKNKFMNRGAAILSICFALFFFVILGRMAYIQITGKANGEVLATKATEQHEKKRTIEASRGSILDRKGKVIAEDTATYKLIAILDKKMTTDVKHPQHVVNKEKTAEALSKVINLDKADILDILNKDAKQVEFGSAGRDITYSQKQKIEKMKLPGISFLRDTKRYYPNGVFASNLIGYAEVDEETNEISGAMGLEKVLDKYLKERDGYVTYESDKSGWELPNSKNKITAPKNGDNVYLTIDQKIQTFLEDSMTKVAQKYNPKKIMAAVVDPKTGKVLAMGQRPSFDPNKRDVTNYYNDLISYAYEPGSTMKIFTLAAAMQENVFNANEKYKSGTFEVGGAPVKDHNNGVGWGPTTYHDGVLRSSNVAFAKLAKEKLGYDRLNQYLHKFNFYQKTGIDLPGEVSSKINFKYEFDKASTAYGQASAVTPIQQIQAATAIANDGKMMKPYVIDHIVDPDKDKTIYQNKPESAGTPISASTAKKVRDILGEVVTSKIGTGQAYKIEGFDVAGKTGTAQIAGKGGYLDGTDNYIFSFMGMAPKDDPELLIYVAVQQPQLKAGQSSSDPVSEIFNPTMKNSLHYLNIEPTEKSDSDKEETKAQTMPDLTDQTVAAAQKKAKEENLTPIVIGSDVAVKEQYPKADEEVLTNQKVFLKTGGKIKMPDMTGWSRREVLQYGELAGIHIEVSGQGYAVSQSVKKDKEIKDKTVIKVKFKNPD

[2] = biological target: T1, Bacillus subtilis PBP2B (BACTH fusion) (Bacillus subtilis 168); assay: two-hybrid; remark: listed apart in the source
[3] = biological target: T2, GFP-PBP2B (Bacillus subtilis) (UniProt Q07868); assay: co-IP
T2 sequence: T1 sequence

| binding [1] | binding [2] | binding [3] | Binder |
| --- | --- | --- | --- |
| binds | binds | – | B1 |
| – | – | binds | B2 |
| binds | binds | – | B3 |
| – | no binding | – | B4 |
